Measured values as given in paper PMC3679059.

Chains of the proteins cited; added tags and fusions are not shown. Lines headed by an entry give the natural chain unless they say otherwise; changes in a name come on top. Residues count along the entry.
UniProt O22476, residues 24-1196: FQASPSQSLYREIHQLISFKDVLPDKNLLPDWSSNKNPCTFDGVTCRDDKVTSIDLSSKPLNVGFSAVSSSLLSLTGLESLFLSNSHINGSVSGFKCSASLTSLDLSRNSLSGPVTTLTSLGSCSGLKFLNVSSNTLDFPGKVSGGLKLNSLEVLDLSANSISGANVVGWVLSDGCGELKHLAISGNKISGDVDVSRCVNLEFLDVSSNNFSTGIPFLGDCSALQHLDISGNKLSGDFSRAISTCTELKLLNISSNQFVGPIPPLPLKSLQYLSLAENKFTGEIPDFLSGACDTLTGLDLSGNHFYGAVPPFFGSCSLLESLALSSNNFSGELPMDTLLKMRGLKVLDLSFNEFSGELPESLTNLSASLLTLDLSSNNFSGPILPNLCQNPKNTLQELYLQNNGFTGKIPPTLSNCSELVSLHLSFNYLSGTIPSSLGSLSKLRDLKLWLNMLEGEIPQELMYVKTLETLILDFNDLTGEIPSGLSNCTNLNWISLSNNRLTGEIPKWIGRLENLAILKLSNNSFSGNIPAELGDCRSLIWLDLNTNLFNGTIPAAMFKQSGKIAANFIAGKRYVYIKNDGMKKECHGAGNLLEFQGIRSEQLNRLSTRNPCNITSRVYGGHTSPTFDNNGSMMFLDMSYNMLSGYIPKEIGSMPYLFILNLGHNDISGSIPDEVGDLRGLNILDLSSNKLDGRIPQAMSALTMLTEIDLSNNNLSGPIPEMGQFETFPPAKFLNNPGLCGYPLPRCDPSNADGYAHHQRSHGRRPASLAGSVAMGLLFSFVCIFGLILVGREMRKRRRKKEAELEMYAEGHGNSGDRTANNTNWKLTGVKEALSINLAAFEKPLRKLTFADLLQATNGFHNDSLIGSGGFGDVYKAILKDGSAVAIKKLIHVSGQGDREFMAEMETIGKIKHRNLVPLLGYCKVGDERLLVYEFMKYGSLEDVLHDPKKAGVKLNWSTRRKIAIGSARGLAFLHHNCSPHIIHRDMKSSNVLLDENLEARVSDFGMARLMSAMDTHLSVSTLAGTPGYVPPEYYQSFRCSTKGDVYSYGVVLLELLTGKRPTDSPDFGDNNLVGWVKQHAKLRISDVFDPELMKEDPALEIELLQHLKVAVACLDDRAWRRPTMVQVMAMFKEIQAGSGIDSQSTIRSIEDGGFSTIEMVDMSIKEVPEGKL
UniProt Q7DZ57: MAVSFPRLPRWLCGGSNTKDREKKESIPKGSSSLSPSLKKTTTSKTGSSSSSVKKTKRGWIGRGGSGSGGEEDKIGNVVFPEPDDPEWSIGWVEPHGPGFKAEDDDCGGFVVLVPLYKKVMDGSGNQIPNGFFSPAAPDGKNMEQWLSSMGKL

Assays:
Assay in all cases: co-IP; proteins co-expressed in the same N. benthamiana leaves; total membrane fraction solubilised with 1% triton X-100; IP with anti-GFP and protein A agarose at 4°C, blot with anti-FLAG
[1] = biological target: T1, BAM2-GFP (full-length) (Arabidopsis) (UniProt Q9M2Z1)
T1 sequence: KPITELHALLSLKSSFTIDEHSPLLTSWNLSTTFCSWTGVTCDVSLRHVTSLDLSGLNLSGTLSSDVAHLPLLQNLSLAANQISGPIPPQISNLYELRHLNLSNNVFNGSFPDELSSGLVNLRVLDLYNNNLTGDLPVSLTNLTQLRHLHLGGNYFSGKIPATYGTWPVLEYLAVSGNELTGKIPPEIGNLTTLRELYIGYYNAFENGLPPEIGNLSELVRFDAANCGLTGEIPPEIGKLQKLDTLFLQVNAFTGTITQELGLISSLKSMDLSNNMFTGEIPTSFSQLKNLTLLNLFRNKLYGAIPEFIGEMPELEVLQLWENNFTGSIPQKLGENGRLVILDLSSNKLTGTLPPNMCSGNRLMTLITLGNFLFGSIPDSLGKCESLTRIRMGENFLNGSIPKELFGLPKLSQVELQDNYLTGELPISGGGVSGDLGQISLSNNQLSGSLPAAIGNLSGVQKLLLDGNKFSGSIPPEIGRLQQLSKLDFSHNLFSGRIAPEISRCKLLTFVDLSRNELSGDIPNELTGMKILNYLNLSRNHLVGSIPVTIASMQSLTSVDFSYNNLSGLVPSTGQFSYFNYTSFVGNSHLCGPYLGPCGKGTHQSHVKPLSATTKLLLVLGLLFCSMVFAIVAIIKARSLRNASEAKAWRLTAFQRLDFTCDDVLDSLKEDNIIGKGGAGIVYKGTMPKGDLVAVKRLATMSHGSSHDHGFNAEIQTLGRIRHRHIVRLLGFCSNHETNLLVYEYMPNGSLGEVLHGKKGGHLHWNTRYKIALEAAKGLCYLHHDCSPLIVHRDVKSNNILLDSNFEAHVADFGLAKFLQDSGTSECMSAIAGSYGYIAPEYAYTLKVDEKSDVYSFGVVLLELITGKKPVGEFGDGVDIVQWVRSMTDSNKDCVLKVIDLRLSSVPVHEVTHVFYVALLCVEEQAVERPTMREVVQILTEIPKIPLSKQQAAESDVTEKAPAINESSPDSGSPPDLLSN

BRI1-GFP (full-length) = BRI1-GFP (full-length) (UniProt O22476)
[2] = biological target: T2, CLV1-GFP (full-length) (Arabidopsis) (UniProt Q9SYQ8)
T2 sequence: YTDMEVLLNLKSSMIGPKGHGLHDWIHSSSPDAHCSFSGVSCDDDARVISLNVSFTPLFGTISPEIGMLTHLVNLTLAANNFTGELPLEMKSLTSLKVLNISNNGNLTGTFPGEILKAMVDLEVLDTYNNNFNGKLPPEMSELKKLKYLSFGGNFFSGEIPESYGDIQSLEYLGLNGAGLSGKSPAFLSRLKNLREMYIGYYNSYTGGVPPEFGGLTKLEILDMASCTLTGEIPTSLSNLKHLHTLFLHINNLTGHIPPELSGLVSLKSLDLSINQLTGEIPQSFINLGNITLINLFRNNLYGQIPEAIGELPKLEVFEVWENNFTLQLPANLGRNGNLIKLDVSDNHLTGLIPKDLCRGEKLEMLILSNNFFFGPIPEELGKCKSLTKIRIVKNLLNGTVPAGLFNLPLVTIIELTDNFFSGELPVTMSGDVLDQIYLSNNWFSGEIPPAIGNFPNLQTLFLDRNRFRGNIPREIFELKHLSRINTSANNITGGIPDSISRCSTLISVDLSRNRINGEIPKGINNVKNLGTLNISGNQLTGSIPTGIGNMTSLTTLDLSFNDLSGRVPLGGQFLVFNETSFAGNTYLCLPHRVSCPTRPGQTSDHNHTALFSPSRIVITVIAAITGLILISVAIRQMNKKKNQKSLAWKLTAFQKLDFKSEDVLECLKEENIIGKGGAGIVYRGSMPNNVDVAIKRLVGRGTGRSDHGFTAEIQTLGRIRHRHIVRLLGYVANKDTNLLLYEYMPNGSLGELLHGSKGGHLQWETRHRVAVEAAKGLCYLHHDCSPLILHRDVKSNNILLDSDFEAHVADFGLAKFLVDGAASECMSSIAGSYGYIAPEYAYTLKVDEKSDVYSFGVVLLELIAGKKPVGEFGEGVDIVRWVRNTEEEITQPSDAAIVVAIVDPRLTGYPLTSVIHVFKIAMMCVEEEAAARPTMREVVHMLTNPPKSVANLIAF

binding [1]: binds
binding (BRI1-GFP (full-length)): binds
binding [2]: binds
Substance: CCI1-FLAG (from UniProt Q7DZ57)

Results are given in words; binding and its absence hold for the method and conditions named. In cells and extracts the contact can be indirect. Binding can be weak; no strength is given. For part of these data: Tags and fused reporters may be left off the sequences shown.
